Screening data, single-dose tests

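Whole-parasite assay of Trypanosoma brucei over 72 hours; the read-out is not stated. Concentration: 10 µM. The record gives no direction; compounds that gave an IC50 in retests scored well above the rest, so higher reads as stronger inhibition. Values scatter widely below zero; nearly all retest evidence comes from the higher of the two concentrations used. About 2,700 compounds were tested under these conditions; 0.51% (about 14) showed 50% or more at least once.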

The filed quantity is “Percent Effect” (%). How 0% and 100% were set is not recorded. Most values in the screen are low, and negative values occur. The compounds are a random part of those screened.

Cc1csc(N2CCN(CC(=O)NC3CCOCC3)CC2C)n1 (centres undefined) read -65.84%. Result for CCC(C)NC(=O)CCNC(=O)Nc1ccc(-n2cncn2)c(F)c1 (centres undefined) was -87.49%. CC(NC(=O)NCCn1ccnc1)c1ccc2c(c1)OCCO2 (centres undefined) gave 3.641%. For CCC(CC)C(=O)NCCc1ccn(-c2ccccc2)n1 the result was -35.97%. For COc1ccc(C2=CCN(C(=O)CN(C)S(C)(=O)=O)CC2)cc1 the result was -4.241%. COc1ccccc1OCCNCCn1cccn1 gave 4.946%.

For Cc1ccc(-c2nc(C(=O)N3CCN(C(=O)N(C)C)CC3)cs2)c(C)c1 the result was -75.36%. With O=C(COCCOc1ccccc1)N1CCCC(n2ccnc2)C1 (centres undefined) the screen gave -58.13%. For Cc1cnn(CC(C)NCc2ccc(OCc3cscn3)cc2)c1 (centres undefined) the result was -17.15%. COc1ccc(COCC(O)CN2CCC(c3ccn[nH]3)CC2)cc1 (centres undefined) gave 49.57%. Result for CN(Cc1ccc(-n2cccn2)cc1)CC1CCCN1c1cccnn1 (centres undefined) was -48.53%. With COc1cc(C)ccc1OCC(=O)NS(=O)(=O)c1ccc(Br)s1 the screen gave -29.45%.

CCN1CCC(NC(=O)CN2CC(n3nc(C)cc3C)C2)CC1 gave -19.53%. CCc1nnc2n1CCN(CCC(=O)Nc1sccc1C#N)C2 read -35.25%. CC(=O)c1ccc(OCC(=O)NS(=O)(=O)c2cccnc2)cc1 read -19.65%. COc1ccc(C(=O)NCCCNc2ccc(C(F)(F)F)cn2)cc1 read -43.1%. With O=C(CCc1cscn1)N1CCCC(n2cncn2)C1 (centres undefined) the screen gave -34.51%. With Cc1nccn1C1CCCN(C(=O)c2cccc(S(C)(=O)=O)c2)C1 (centres undefined) the screen gave -31.3%.

For CCc1nc(CC(=O)N2CCn3c(CC)nnc3C2)cs1 the result was -33.17%. Result for CC(=O)N1CCCN(C(=O)NCc2ccc(Cl)s2)CC1 was -9.405%. With Cc1cnn(CCC(=O)N2CCCN(c3nc(C)cs3)CC2)c1 the screen gave -8.958%. Cc1nn(C)c(C)c1C1CCCN1C(=O)c1ccc2nnc(C)n2c1 (centres undefined) gave -93.63%. COc1ccc(CC(=O)N2CCCC(c3cc(C)[nH]n3)C2)cc1 (centres undefined) read -21.92%. For Cc1nc(C)n(CC2CCCN(CC(=O)N3CCCC3)C2)n1 (centres undefined) the result was -60.57%.

Fc1ccc(OCCNCCn2cccn2)cc1 read -5.69%. Result for Cc1noc(C)c1C(=O)NCc1ccc(N2CCCCCC2)nc1 was -28%. Cc1ccsc1CN(C)C(=O)c1cc2c([nH]c1=O)CCCC2=O gave -55.89%. Result for CCn1ccnc1CN1CCN(C(C)C(=O)NC2CCCC2)CC1 (centres undefined) was -62.93%. Result for CC(C)c1nc2c(n1C)CCN(CC(=O)Nc1ccnn1C(C)C)C2 was -25.46%. For Cn1ccc(C(=O)Nc2cc(F)ccc2OCC2CCCO2)cc1=O (centres undefined) the result was -22.56%.

CC(C)c1n[nH]c(C2CN(C(=O)c3ccnc(C4CC4)n3)CCO2)n1 (centres undefined) read -44.45%. O=C(CS(=O)(=O)Cc1ccc(F)cc1)NC1CCCCNC1=O (centres undefined) read -50.35%. Result for CN(C)c1cccc(C(=O)N2CCC(c3n[nH]c(C4CC4)n3)CC2)c1 was -9.867%. CNc1nc(CNC(=O)Nc2cccc(OC)c2)cs1 gave -57.73%. Result for c1ncn(CC2CCCCN2Cc2csc(-c3ccsc3)n2)n1 (centres undefined) was -27.67%. With Cc1noc(C2CCCN(C(=O)c3ccc(N(C)C)nc3)C2)n1 (centres undefined) the screen gave -49.76%.

For Cc1ccc(C(C)N(C)Cc2nc3c(cnn3C)c(=O)[nH]2)c(C)c1 (centres undefined) the result was -55.12%. CC(C)NC(=O)C1CCN(c2snc3ccccc23)CC1 gave -21.45%. O=C(O)c1c[nH]c2cc(NS(=O)(=O)c3cccc(F)c3F)ccc12 gave -44.71%. With Cc1nn(C)c(C)c1C1CCCN1Cc1nc2ccccc2n1C (centres undefined) the screen gave -54.07%. With CCNc1cc2c(nn1)CCN(C(=O)c1cccc3c1OCO3)C2 the screen gave -12.83%. CN(Cc1ccsc1)C(=O)Nc1ccc(N(C)C)nc1 gave -57.81%.

Result for CCc1noc(C)c1C(=O)NCC(c1ccc(C)cc1)N(C)C (centres undefined) was -79.2%.

Some entries from above, unchanged:

| structure | percent effect |
|---|---|
| `Cc1cnn(CC(C)NCc2ccc(OCc3cscn3)cc2)c1` (centres undefined) | -17.15% |
| `CC(=O)c1ccc(OCC(=O)NS(=O)(=O)c2cccnc2)cc1` | -19.65% |
| `COc1ccc(C2=CCN(C(=O)CN(C)S(C)(=O)=O)CC2)cc1` | -4.241% |
| `Cc1nc(C)n(CC2CCCN(CC(=O)N3CCCC3)C2)n1` (centres undefined) | -60.57% |
| `CCc1noc(C)c1C(=O)NCC(c1ccc(C)cc1)N(C)C` (centres undefined) | -79.2% |

The values are deposited in ChEMBL (CHEMBL3988442, “University of Dundee, Small-Polar-MMV Screening Library” (2021)).